What is called AC50 is the concentration giving half of the maximal activity seen.

The other results are listed elsewhere or left out. The main result of the screen is listed elsewhere. These columns were measured beside it and carry no call. Compounds called inactive in the main read-out are mostly missing here. The note in brackets gives the kind of curve behind each potency; many fits are weak.

Among the data in PubChem BioAssay AID493014 (National Center for Advancing Translational Sciences (NCATS), 2011) are AC50 values, retold here.

This assay in a line: qHTS Assay to Find Inhibitors of Chronic Active B-Cell Receptor Signaling. Particulars: ABC-DLBCL IkBa-CBG/CBR reporter, luminescence ratio (green luciferase fused to IkBa over red control in TMD8 lymphoma cells), 4 h; measured here: CBR red luminescence, cell number. Put shortly:
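Doxycycline induced both beetle luciferases in TMD8 lymphoma cells; IKK-driven degradation limits the IkappaBalpha-fused green signal, while red luminescence normalises for cell number and nonspecific effects. Compounds tested up to 46 uM, 4 hrs.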
Turning to `COc1ccc(Nc2ccc(S(=O)(=O)N3CCCCC3)cc2[N+](=O)[O-])cc1Cl`, the concentration at half-maximal activity (AC50) was 3.26 µM [rising, partial curve, poor fit].
With `CCC(=O)Nc1ccc(C(=O)OCC(=O)c2ccc(C)c([N+](=O)[O-])c2)cc1` the figure was 5.62 µM [rising, single point]; with `CCN(CC)C(=O)C1CCCN(c2ncnc3c2cnn3-c2ccc(Cl)cc2)C1` (stereo not drawn), 12.6 µM [falling, partial curve, poor fit].
`COc1ccc(-c2nnc(SCCc3ccccc3)n2N)cc1`: the AC50 was 4.11 µM [rising, single point].
For the molecule `Cc1cc(Nc2ncc(Cl)cc2Cl)n[nH]1`, the concentration at half-maximal activity (AC50) is 9.2 µM [rising, partial curve].
Turning to `CCOc1cccc2sc(NC(=O)CCS(=O)(=O)c3ccccc3)nc12`, the concentration at half-maximal activity (AC50) is 8.91 µM [falling, partial curve].
As for `O=C(COC(=O)CNC(=O)C12CC3CC(CC(C3)C1)C2)NC1CCS(=O)(=O)C1` (stereo not drawn), the AC50 was 6.51 µM [rising, partial curve, poor fit].
With `Cc1nc(NS(=O)(=O)c2ccccc2)sc1C(=O)N/N=C/c1ccccc1` the figure was 10 µM [falling, partial curve, poor fit].
With `COc1cc(/C=N/N2CCCCC2)cc(OC)c1O` the figure was 35.5 µM [rising, partial curve, poor fit]; with `COC(=O)c1sccc1NC(=O)CSc1ccccc1NS(=O)(=O)c1ccccc1Cl`, 14.6 µM [falling, single point].
With `Cn1nnnc1Sc1ncnc2scc(-c3cccc(C(F)(F)F)c3)c12`, the concentration at half-maximal activity (AC50) is 5.17 µM [falling, partial curve].
With `O=C(N/N=C/c1ccc(Br)o1)c1cc([N+](=O)[O-])cc([N+](=O)[O-])c1` the figure was 0.708 µM [rising, full curve, poor fit]; with `Cc1ccc(CC(=O)NCc2ccc(F)cc2)cc1`, 0.891 µM [rising, full curve].
With `COc1ccc(OC)c(C(c2c(C)[nH][nH]c2=O)c2c(C)[nH][nH]c2=O)c1` the figure was 2 µM [falling, full curve, poor fit]; with `CCOC(=O)c1c(NC(NC(C)=O)C(Cl)(Cl)Cl)sc(C(C)=O)c1C` (stereo not drawn), 6.31 µM [falling, partial curve, poor fit].
Consider `Nc1nc(-c2ccco2)c(-c2ccco2)s1`, for which the AC50 is 3.55 µM [falling, partial curve].
Regarding `NC(=O)c1c(NC(=O)c2cc3ccccc3o2)sc2c1CCC2`, the concentration at half-maximal activity (AC50) was 1.58 µM [falling, full curve, poor fit].
As to `CC1(C)CC(=O)C=C(c2cccc(CO)c2)C1`, the AC50 is 0.82 µM [rising, full curve, poor fit].
